For 2 substances, binding results are on record in PMC9932112.

Results are given in words; binding and its absence hold for the method and conditions named. Binding seen in cells or lysates may run through a third protein. Some binding calls cover weakened binding; strength is not graded here. Where a sequence is shown, tags or fusion partners need not be part of it.

One assay deals with T1, Recombinant GST-OGT (UniProt O15294).
T1 sequence: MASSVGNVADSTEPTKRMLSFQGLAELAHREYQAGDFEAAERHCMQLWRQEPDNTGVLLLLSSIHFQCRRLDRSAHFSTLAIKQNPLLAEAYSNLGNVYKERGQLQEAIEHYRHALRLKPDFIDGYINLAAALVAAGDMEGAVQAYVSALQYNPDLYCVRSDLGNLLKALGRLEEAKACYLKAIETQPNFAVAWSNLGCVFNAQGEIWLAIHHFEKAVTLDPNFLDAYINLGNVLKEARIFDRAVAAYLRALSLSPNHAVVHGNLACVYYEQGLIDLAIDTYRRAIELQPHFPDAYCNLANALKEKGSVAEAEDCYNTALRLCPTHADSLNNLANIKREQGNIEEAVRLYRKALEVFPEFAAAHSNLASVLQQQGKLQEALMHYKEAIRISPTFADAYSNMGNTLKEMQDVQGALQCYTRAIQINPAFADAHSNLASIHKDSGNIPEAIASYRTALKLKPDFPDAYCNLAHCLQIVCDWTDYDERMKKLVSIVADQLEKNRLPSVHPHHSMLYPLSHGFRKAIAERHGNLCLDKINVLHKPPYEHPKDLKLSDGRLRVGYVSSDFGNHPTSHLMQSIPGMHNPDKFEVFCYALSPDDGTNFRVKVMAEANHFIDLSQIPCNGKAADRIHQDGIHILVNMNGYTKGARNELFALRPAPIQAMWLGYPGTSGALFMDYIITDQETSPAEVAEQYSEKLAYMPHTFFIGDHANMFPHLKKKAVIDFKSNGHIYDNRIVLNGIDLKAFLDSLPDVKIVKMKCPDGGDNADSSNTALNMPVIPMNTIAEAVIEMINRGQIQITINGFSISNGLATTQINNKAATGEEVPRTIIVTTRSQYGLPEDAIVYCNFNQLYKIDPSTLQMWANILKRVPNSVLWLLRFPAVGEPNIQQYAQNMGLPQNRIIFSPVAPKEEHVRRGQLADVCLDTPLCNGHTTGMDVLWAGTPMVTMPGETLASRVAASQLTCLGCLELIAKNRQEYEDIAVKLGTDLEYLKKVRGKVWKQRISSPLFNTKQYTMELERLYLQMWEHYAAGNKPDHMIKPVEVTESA
Put plainly: pull-down; recombinant GST-OGT incubated with extracts of cells transfected with Flag-PLK1; GST pull-down; only the target purified.

The next assay concerns the target T2, Myc-OGT (UniProt O15294).
T2 sequence: T1 sequence
Kind of assay: co-IP; overproduced proteins; cells transfected with Flag-Plk1 and Myc-OGT plasmids, lysates immunoprecipitated with anti-Myc antibodies, immunoblotted with anti-Flag antibodies. Background: In western blotting, separated proteins are transferred to a membrane and probed.

Assay [1] has as its target T3, O-linked β-N-acetylglucosamine (O-GlcNAc) transferase (OGT), endogenous (human (endogenous in HeLa)) (UniProt O15294).
T3 sequence: T1 sequence
Kind of assay: co-IP; endogenous proteins; cell extracts immunoprecipitated with anti-OGT antibodies, immunoblotted with anti-PLK1 antibodies.

As to Flag-PLK1 (from UniProt P53350 1-603), the binding entry with Recombinant GST-OGT and in the assay with Myc-OGT was “binds” each time. On to “polo-like kinase 1 (PLK1), endogenous (from UniProt P53350 1-603)”, for which the binding result in assay [1] is given as “binds”.
